The text below walks through data of doi:10.1101/2019.12.11.872606.

Sequences of proteins named here, by UniProt entry; tags and fusion partners are left off. Residues count along the entry.
UniProt O60469: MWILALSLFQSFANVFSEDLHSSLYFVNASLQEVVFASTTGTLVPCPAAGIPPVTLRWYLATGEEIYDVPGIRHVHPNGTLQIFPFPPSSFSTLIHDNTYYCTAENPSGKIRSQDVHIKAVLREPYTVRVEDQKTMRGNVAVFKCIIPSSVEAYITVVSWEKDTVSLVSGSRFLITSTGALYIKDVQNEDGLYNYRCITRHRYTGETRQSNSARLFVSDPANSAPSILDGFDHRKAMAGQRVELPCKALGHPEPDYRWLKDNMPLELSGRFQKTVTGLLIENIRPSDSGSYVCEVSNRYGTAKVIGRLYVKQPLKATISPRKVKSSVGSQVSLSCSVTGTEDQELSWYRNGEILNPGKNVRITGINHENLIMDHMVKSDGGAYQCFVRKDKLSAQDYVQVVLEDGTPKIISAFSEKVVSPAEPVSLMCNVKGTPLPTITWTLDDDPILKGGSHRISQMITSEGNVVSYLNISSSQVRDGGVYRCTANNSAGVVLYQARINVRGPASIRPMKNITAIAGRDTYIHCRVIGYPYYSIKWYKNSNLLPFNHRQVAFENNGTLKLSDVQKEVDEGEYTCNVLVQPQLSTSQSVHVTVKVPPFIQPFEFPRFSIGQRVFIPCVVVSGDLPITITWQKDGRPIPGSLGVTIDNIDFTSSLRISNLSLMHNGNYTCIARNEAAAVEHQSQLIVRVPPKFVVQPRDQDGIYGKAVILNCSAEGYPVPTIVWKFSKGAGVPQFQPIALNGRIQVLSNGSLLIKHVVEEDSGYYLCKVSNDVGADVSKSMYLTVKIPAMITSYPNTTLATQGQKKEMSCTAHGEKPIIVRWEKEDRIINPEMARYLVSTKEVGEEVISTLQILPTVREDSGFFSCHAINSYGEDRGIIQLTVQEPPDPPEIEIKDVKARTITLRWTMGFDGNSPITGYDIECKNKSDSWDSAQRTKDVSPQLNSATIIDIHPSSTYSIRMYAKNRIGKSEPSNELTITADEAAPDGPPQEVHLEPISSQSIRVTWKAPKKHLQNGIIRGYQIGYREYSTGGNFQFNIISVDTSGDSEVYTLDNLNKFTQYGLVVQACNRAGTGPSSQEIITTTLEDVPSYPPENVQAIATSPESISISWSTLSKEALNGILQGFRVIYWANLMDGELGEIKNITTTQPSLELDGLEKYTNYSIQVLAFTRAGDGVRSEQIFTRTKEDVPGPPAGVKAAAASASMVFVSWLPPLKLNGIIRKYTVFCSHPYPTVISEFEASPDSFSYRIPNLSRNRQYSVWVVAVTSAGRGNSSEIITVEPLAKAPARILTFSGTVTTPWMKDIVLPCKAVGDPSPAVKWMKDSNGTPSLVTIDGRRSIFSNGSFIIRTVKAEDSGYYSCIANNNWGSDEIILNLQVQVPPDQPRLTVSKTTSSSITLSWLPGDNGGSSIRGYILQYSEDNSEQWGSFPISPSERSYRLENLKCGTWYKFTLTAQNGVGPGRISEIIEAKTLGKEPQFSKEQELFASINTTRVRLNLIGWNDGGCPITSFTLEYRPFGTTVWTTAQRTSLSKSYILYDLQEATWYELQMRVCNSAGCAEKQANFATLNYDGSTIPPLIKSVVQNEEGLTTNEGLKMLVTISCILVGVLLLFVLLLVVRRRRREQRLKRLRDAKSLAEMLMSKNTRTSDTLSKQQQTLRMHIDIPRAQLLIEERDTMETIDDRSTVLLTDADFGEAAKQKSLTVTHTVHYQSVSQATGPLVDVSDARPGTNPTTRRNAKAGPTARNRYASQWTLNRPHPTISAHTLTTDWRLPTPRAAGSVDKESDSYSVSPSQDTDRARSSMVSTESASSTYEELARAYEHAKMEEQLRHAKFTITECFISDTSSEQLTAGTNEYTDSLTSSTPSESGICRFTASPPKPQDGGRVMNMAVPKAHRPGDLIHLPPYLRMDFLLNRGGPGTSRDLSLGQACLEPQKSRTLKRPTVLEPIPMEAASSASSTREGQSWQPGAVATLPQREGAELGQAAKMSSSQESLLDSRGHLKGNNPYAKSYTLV
UniProt Q60934, residues 31-836: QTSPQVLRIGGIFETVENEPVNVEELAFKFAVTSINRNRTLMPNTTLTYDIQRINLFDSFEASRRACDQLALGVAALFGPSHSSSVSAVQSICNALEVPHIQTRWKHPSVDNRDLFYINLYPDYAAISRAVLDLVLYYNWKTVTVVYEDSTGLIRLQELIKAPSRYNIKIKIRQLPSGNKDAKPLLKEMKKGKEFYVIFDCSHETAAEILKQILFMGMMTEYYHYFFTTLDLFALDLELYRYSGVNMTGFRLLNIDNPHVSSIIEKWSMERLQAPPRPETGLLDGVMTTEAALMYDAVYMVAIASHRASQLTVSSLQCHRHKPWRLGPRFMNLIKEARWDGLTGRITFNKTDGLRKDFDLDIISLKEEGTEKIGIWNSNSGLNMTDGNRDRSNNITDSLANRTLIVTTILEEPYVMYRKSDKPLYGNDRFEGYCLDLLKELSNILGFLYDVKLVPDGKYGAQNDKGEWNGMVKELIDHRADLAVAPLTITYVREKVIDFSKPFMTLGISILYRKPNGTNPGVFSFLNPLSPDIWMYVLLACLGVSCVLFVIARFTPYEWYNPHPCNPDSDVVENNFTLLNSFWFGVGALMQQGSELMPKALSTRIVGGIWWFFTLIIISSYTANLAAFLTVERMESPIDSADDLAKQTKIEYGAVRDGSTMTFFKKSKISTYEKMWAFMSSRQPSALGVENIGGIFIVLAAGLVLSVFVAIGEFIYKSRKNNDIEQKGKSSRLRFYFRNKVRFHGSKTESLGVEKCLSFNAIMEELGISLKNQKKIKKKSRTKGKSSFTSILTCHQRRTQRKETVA
UniProt O08539: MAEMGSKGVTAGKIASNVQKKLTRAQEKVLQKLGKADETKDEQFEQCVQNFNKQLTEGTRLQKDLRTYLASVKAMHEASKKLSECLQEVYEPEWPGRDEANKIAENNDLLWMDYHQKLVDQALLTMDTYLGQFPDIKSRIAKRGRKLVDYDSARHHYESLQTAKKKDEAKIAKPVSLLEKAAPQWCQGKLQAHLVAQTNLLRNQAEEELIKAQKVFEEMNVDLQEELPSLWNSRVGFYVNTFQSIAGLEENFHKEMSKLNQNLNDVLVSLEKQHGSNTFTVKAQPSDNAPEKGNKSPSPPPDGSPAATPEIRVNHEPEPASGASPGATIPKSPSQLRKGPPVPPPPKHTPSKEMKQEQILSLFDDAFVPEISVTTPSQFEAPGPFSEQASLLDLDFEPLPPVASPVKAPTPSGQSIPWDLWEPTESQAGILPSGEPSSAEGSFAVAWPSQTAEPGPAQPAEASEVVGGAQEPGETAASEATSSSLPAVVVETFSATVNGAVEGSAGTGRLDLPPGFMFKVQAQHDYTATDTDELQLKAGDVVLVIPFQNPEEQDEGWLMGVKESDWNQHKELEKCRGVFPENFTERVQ
UniProt Q12959, residues 305-653: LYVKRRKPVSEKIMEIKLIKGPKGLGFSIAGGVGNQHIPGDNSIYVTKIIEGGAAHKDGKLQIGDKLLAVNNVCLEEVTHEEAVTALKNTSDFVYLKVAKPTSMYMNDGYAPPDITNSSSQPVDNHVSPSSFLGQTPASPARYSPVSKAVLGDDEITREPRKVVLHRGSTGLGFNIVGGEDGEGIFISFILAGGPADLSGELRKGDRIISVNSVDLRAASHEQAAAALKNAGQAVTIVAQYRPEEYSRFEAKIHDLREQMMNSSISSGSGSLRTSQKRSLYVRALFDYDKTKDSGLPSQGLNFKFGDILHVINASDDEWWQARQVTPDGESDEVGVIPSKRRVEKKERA
UniProt O88704: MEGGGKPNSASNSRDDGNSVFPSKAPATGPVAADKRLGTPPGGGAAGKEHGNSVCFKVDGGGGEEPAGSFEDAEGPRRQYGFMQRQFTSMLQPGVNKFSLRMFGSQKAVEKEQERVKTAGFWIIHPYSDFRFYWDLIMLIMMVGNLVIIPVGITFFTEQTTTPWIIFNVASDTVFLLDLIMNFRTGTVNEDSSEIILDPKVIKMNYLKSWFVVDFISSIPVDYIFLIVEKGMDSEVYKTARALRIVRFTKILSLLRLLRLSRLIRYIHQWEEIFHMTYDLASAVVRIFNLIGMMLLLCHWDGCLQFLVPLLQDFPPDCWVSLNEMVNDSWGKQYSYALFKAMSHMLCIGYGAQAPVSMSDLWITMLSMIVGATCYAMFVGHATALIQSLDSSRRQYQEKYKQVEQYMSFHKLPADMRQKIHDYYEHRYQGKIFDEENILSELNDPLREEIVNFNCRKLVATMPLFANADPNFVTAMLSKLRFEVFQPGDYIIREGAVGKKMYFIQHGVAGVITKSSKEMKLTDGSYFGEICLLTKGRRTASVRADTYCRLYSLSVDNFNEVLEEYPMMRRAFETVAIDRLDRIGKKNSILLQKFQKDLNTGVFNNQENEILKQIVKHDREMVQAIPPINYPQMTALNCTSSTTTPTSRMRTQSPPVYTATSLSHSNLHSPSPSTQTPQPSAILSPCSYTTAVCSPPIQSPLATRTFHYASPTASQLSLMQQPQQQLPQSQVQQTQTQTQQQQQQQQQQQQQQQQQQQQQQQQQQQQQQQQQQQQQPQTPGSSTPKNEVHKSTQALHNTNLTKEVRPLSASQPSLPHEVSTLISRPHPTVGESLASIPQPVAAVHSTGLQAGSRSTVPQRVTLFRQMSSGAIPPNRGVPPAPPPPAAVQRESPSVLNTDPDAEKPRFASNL
UniProt P60879: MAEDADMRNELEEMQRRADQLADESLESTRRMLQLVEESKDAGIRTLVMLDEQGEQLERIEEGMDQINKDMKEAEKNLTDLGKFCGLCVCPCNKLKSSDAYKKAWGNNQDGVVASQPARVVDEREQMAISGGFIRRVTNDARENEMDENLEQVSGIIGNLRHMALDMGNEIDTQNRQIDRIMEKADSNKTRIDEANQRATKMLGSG
UniProt Q811D0: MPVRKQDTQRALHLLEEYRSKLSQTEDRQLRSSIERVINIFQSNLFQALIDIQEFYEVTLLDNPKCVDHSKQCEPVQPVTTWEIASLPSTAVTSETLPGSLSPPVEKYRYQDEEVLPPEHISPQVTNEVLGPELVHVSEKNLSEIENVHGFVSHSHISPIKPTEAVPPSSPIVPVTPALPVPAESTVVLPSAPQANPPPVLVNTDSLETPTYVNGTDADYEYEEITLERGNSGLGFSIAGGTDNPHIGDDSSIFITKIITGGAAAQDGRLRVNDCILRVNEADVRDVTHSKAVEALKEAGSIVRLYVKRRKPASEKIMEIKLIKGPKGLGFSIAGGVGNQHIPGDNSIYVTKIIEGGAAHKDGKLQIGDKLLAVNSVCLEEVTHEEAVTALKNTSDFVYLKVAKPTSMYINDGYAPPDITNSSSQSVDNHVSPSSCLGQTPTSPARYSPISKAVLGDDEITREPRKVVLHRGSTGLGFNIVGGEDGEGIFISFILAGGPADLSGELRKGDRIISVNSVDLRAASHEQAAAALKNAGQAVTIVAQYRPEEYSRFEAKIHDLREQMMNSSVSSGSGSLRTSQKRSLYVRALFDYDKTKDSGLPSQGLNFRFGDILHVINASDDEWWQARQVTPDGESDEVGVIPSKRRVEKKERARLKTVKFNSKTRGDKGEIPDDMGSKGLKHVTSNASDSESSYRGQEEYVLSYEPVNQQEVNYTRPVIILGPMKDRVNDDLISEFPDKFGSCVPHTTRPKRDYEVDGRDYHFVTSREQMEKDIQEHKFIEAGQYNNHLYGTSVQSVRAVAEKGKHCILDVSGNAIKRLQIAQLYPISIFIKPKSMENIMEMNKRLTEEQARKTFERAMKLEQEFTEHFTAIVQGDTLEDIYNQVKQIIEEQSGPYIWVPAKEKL
UniProt P53668: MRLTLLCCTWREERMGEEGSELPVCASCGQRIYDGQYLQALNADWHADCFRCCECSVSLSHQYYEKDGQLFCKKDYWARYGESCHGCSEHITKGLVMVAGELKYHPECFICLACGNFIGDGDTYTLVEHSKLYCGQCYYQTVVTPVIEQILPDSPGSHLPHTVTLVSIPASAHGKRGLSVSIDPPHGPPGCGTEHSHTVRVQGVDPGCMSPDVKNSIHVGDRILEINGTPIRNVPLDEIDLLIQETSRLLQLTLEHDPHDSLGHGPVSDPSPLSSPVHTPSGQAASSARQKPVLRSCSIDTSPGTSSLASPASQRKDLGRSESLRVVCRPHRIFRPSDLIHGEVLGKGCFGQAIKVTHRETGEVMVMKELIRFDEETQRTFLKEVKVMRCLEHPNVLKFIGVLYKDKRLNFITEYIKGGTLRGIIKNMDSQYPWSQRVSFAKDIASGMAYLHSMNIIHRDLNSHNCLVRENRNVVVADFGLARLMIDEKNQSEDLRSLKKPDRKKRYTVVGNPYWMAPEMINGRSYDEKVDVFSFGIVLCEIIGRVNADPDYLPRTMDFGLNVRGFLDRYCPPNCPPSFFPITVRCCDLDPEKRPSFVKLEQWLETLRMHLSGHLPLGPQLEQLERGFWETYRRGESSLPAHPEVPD

In test [1] the target is Tiam1 (endogenous, mouse cortical neurons) (mouse (endogenous in primary cortical neurons)) (UniProt Q60610). The experiment in a line: proximity ligation.
Test [2] deals with human DSCAM (human) (UniProt O60469). The test is described as follows: two-hybrid.
The target is the same in test [3]. The experiment in a line: two-hybrid. The source holds these as a separate data set.
The target of test [4] is T1, Hunk (endogenous, mouse cortical neurons) (mouse (endogenous in primary cortical neurons)) (UniProt O88866).
T1 sequence: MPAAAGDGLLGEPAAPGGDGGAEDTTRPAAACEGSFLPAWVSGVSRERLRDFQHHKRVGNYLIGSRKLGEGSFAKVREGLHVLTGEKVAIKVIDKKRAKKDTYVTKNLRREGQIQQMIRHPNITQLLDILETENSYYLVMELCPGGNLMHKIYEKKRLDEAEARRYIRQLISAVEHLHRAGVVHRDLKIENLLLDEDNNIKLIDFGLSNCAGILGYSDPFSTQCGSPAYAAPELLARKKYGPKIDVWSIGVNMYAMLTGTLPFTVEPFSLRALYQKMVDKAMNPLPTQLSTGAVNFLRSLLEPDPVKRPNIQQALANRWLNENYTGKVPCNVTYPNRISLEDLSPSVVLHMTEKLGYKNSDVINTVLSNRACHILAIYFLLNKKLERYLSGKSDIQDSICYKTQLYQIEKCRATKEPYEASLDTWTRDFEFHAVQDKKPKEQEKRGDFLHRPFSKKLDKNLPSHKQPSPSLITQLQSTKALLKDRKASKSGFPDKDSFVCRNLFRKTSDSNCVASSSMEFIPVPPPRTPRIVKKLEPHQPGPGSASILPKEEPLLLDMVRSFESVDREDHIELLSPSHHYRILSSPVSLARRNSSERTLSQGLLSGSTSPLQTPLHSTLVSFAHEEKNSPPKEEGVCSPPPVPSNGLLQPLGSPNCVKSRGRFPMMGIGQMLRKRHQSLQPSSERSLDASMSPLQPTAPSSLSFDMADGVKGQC
The experiment in a line: proximity ligation.

Test [5] concerns the target Grik1 (endogenous, mouse cortical neurons) (mouse (endogenous in primary cortical neurons)) (UniProt Q60934). The experiment in a line: proximity ligation.
Test [6] has as its target Itsn1 (endogenous, mouse cortical neurons) (mouse (endogenous in primary cortical neurons)) (UniProt Q9Z0R4). The experiment in a line: proximity ligation.
Test [7] has as its target T2, Kcnj6 (endogenous, mouse cortical neurons) (mouse (endogenous in primary cortical neurons)) (UniProt P48542).
T2 sequence: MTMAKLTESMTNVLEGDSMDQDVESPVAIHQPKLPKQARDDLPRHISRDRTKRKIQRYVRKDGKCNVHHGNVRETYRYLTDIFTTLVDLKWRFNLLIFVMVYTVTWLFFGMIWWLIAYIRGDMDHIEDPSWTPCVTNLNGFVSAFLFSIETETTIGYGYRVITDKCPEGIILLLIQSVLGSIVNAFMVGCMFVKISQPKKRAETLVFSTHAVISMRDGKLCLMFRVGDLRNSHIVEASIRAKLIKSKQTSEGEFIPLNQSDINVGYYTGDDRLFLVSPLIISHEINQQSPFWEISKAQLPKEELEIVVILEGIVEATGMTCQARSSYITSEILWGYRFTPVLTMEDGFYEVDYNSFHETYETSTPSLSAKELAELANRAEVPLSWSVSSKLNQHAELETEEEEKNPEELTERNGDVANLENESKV
The experiment in a line: proximity ligation.

For test [8], the target named is Grik1 (endogenous, mouse cortical neurons) (mouse (endogenous in primary cortical neurons)) (UniProt Q60934). The test is described as follows: proximity ligation. The source holds these as a separate data set.
Test [9] deals with Dyrk1a-GFP construct (mouse) (UniProt Q61214). The test is described as follows: proximity ligation.
Test [10] deals with T1, Hunk (endogenous, mouse cortical neurons) (mouse (endogenous in primary cortical neurons)). The test is described as follows: proximity ligation. This is another data set of the same source.

Where two headings read alike, the source gives them in different places. Results are given in words; binding and its absence hold for the method and conditions named. For some assays here: Binding seen in cells or lysates may run through a third protein. Some binding calls cover weakened binding; strength is not graded here.

With “Bin1 (endogenous, mouse cortical neurons) (from UniProt O08539 1-588)”, the binding entry in [1] is “binds”.
As to “DLG4 (154-356) (from UniProt P78352 154-356) (domain or fragment)”, the binding result with human DSCAM (human) [2] and with human DSCAM (human) [3] was “binds” throughout.
Consider “DLG1 (aa 305-653) (from UniProt Q12959 305-653) (domain or fragment)”, for which the binding entry in the test with human DSCAM (human) [2] and with human DSCAM (human) [3] was “binds” each time.
Take “Agap3 (endogenous, mouse cortical neurons) (from UniProt Q8VHH5 1-910)”: in test [4], the binding entry is given as “binds”.
Regarding “Hcn1 (endogenous, mouse cortical neurons) (from UniProt O88704 1-910)”, the binding entry in test [5] is “binds”.
Regarding “Snap25 (endogenous, mouse cortical neurons) (from UniProt P60879 1-206)”, the binding entry in [6] is reported as “binds”.
As to “Kcnq2 (endogenous, mouse cortical neurons) (from UniProt Q9Z351 1-759)”, in test [5], the binding entry is on record as “binds”.
Consider “Dlg1 (endogenous, mouse cortical neurons) (from UniProt Q811D0 1-905)”, for which the binding entry in test [7] and in test [1] was “binds” throughout.
For the molecule “Kalrn (endogenous, mouse cortical neurons) (from UniProt A2CG49 1-2964)”, in test [5], the binding result is given as “binds”.
As for “Limk1 (endogenous, mouse cortical neurons) (from UniProt P53668 1-647)”, in test [4], the binding result is “binds”.

B1: DLG3 (aa 212-385) (domain or fragment, UniProt Q92796 212-385)
chain: LVVRRRQPPPETIMEVNLLKGPKGLGFSIAGGIGNQHIPGDNSIYITKIIEGGAAQKDGRLQIGDRLLAVNNTNLQDVRHEEAVASLKNTSDMVYLKVAKPGSLHLNDMYAPPDYASTFTALADNHISHNSSLGYLGAVESKVSYPAPPQVPPTRYSPIPRHMLAEEDFTREPR
As to B1, the binding result with human DSCAM (human) [3] was “binds”.

B2: Sept7 (endogenous, mouse cortical neurons) (protein, UniProt O55131 1-436)
chain: MSVSARSAAAEERSVNCGTMAQPKNLEGYVGFANLPNQVYRKSVKRGFEFTLMVVGESGLGKSTLINSLFLTDLYSPEYPGPSHRIKKTVQVEQSKVLIKEGGVQLLLTIVDTPGFGDAVDNSNCWQPVIDYIDSKFEDYLNAESRVNRRQMPDNRVQCCLYFIAPSGHGLKPLDIEFMKRLHEKVNIIPLIAKADTLTPEECQQFKKQIMKEIQEHKIKIYEFPETDDEEENKLVKKIKDRLPLAVVGSNTIIEVNGKRVRGRQYPWGVAEVENGEHCDFTILRNMLIRTHMQDLKDVTNNVHYENYRSRKLAAVTYNGVDNNKNKGQLTKSPLAQMEEERREHVAKMKKMEMEMEQVFEMKVKEKVQKLKDSEAELQRRHEQMKKNLEAQHKELEEKRRQFEEEKANWEAQQRILEQQNSSRTLEKNKKKGKIF
On to B2, for which the binding entry in [8] is “binds”.

B3: Rnasen (endogenous, mouse cortical neurons) (protein, UniProt Q5HZJ0 1-1373)
chain: MQGNTCHRMSYHPGRGCPRGRGGHGARPSAPAFRPQNLRLLHPQQPPAQYQYEPPSAPSSSYSNSQAPSFMPPRPDFVPYPPPAAPSAQGPLPPCPVRPPYPNHQMRHPFPVPPCFPPMPPPMPCPNNPPASGAPPGQGTFPFMVPPPSMPHPPPPPVMPQQVNYQYPPGYSHSFPPPGFNSYQNNSSSFPPSANSSSTPHFRHLPPYSLPKAQNERRSPERLKHYDDHRHRDHSHGRGERHRSLERRERGRSPERRRPESRYRSDYDRGRTPPPRHRSYERSRERDRERHRHREARRSPSLERSYKKEYKRSGRSYALPVAPEPAGCTPELPGEMIKTTESWAPPPENVNHRSPSREKKRARWEEEKDRWSDSQGSGKEKNYTSIKEKEAEEVPPEKTEEEEEELLKPVWIRCTHSESYYSSDPMDQVGDSTVVGTSRLRDLYDKFEEELGNRQEKAKAARPPWEPPKTKLDEDLESSSESECETDDDSTCSSSSDSEVFDVIAEIKRKKAHPDRLHDELWYNDPGQMNDGPLCKCSAKARRTGIRHSIYPGEEAIKPCRPMTNNAGRLFHYRITVSPPTNFLTDRPTVIEYDDHEYIFEGFSMFAHAPLTNIPLCKVIRFNIDYTIHFIEEMMPENFCVKGLELFSLFLFRDILELYDWNLKGPLFEDSPPCCPRFHFMPRFVRFLPDGGKEVLSMHQILLYLLRCSKALVPEEEIANMLQWEELEWQKYAEECKGMIVTNPGTKPSSVRIDQLDREQFNPEVITFPIIVHFGIRPAQLSYAGDPQYQKLWKSYVKLRHLLANSPKVKQTDKQKLAQREEALQKIRQKNTMRREVTVELSSQGFWKTGIRSDVCQHAMMLPVLTHHIRYHQCLMHLDKLIGYTFQDRCLLQLAMTHPSHHLNFGMNPDHARNSLSNCGIRQPKYGDRKVHHMHMRKKGINTLINIMSRLGQDDPTPSRINHNERLEFLGDAVVEFLTSVHLYYLFPSLEEGGLATYRTAIVQNQHLAMLAKKLELDRFMLYAHGPDLCRESDLRHAMANCFEALIGAVYLEGSLEEAKQLFGRLLFNDPDLREVWLNYPLHPLQLQEPNTDRQLIETSPVLQKLTEFEEAIGVIFTHVRLLARAFTLRTVGFNHLTLGHNQRMEFLGDSIMQLVATEYLFIHFPDHHEGHLTLLRSSLVNNRTQAKVAEELGMQEYAITNDKTKRPVALRTKTLADLLESFIAALYIDKDLEYVHTFMNVCFFPRLKEFILNQDWNDPKSQLQQCCLTLRTEGKEPDIPLYKTLQTVGPSHARTYTVAVYFKGERIGCGKGPSIQQAEMGAAMDALEKYNFPQMAHQKRFIERKYRQELKEMRWEREHQEREPEEAEDIKK
For B3, the binding entry in test [9] is “binds”.

B4: Synpo (endogenous, mouse cortical neurons) (protein, UniProt Q8CC35 1-929)
chain: MLGAHFPPPPLGASEGRAAPCTFQIPDGSYRCLALEAEESSSEDGLQGEVRLVDLEEEGTSQSRANHGTPPLSRAPAIIQPSSCHREARGGFQRSDRPSHDWDVVQARKVMTASGSSSPVPRVAQKPALGRSTSFTENDLKEAKARSQQIAAQLTTPPSSNSRGVQLFNRRRQRVNEFTLESRGQRSPKLNQEALQTGRPLSPIGHAPGPSVKPTSPSKPGSPKHPSPQSPSRGVAGHIMEGYSEEASLLRHLEKVASEEEEVPLVVYLKENAALLTANGLHLSQSRETQQSSPNPPDTEVPSPAADINQNPSSPNATLTTLASSSHHSQPTADINQNPPAAITPVPQNSSQAQCSPNGTLDSKPGTLCADDGQSPVPAEEVRSSILLIDKVSAPPSAASTFSREATPLSSSGPPAADLMSSSLLIDMQPSTLVAPAEQEVPGHVAVTTPTKVYSEVHLTLAKPASVVNRTARPFGIQSPGTSQIEQSPMMGRRQFGEKAWAPPASSMADRSPQPQRHIMSRSPMVERRLLGQRSPVLERRPLGNFTPPPTYAETLSTAPVASRVRSPPSYSTLYPSSDPKPSHLKGQVAPANKTGILEESMARRGSRKSMFTFVEKPKVTPNPDLLDLVQTADEKRRQRDHGEVGMEEEPFALGAEASNFQQEPIARDRASPAAAEEAVPEWASCLKSPRIQAKPKPKPNQNLSEASGKGAELYARRQSRMEKYVIESSGHAELARCPSPTMSLPSSWKYTTNAPGGFRVASLSPARTPPASLYHGYLPENGVLRPEPTKQQPYQMRPSLYALSPVKEPAKASSRATSSRTPSRTVSPRAASPAKPSSLDLVPNLPRAGLPPSPALPRPSRSSPGLYTAPVQDSLQPTAVSPTYSSDISPVSPSRAWSPRAKQAPRPSFSTRNAGIEAQVWKPSFCFK
With B4, in test [10], the binding entry is “binds”.
